# Measurements from the supplement of paper PMC12823440, “Inhibitors supercharge kinase turnover through native proteolytic circuits” (Nature, 2025).
# Protein sequences, listed by entry. Tags and fused reporters are not part of them. Lines headed by an entry give the natural chain unless they say otherwise; changes in a name come on top.
# UniProt Q16288, whole entry, looked up: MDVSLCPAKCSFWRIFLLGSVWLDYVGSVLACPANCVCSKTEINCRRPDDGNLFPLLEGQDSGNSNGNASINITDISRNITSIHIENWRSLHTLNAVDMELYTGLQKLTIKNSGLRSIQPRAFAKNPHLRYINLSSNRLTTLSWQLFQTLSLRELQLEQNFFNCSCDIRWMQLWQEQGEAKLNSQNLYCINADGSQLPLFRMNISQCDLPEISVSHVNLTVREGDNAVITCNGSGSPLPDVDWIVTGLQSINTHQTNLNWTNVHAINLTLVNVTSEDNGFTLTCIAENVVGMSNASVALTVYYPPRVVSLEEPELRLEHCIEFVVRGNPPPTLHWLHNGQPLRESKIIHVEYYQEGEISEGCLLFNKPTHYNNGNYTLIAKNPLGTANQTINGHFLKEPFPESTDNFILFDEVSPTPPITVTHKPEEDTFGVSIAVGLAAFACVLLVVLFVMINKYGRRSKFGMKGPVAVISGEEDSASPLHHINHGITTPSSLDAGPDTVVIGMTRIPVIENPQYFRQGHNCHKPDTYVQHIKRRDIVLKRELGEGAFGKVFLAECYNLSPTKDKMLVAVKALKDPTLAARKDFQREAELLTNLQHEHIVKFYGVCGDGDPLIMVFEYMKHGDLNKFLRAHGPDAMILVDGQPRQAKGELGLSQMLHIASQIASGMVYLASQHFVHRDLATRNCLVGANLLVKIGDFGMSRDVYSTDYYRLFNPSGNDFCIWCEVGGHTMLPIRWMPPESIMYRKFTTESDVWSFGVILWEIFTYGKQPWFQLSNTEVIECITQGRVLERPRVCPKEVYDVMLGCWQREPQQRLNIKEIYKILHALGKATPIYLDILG
# UniProt P09619, whole entry: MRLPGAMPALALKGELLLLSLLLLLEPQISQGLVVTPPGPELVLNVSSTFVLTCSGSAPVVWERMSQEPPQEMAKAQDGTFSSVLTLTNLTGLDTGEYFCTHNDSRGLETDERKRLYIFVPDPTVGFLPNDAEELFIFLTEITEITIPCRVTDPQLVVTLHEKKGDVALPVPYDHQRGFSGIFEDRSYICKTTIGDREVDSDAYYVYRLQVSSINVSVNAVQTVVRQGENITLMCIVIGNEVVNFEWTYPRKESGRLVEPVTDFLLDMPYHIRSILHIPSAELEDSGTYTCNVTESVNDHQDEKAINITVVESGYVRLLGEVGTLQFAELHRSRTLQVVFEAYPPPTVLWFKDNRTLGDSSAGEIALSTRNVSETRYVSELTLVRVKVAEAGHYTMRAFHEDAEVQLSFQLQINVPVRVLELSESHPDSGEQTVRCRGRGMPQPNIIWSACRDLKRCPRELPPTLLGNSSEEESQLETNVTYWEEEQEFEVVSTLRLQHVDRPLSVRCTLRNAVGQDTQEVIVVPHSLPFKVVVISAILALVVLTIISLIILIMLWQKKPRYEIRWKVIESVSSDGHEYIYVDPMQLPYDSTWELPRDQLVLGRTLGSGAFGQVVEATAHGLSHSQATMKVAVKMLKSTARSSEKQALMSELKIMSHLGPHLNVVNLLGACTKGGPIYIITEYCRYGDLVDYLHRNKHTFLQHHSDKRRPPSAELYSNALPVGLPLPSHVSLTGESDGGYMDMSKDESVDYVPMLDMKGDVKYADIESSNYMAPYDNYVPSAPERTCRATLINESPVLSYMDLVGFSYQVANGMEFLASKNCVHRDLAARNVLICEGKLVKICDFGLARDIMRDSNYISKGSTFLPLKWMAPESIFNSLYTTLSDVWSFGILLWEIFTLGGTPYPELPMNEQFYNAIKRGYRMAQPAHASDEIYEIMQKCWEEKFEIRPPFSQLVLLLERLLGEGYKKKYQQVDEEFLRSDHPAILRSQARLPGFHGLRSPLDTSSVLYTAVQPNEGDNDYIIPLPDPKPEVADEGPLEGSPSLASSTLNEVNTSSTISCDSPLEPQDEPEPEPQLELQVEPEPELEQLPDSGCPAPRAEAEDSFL
# UniProt O15530: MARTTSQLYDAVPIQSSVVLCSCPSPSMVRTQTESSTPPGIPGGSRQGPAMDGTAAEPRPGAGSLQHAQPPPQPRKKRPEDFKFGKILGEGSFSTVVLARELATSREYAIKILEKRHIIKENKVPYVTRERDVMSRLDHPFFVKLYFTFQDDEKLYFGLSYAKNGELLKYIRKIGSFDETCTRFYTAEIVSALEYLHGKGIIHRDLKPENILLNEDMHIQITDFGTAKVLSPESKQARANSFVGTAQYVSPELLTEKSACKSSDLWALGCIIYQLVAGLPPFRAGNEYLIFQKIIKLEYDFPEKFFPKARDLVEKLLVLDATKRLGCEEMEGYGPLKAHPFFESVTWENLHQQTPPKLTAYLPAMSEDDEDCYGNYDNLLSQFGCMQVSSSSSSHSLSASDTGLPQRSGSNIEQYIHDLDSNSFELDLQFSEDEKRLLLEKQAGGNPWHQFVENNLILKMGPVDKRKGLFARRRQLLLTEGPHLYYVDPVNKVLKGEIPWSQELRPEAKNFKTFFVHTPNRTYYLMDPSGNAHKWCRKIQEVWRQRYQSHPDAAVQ
# UniProt P42356, whole entry, looked up: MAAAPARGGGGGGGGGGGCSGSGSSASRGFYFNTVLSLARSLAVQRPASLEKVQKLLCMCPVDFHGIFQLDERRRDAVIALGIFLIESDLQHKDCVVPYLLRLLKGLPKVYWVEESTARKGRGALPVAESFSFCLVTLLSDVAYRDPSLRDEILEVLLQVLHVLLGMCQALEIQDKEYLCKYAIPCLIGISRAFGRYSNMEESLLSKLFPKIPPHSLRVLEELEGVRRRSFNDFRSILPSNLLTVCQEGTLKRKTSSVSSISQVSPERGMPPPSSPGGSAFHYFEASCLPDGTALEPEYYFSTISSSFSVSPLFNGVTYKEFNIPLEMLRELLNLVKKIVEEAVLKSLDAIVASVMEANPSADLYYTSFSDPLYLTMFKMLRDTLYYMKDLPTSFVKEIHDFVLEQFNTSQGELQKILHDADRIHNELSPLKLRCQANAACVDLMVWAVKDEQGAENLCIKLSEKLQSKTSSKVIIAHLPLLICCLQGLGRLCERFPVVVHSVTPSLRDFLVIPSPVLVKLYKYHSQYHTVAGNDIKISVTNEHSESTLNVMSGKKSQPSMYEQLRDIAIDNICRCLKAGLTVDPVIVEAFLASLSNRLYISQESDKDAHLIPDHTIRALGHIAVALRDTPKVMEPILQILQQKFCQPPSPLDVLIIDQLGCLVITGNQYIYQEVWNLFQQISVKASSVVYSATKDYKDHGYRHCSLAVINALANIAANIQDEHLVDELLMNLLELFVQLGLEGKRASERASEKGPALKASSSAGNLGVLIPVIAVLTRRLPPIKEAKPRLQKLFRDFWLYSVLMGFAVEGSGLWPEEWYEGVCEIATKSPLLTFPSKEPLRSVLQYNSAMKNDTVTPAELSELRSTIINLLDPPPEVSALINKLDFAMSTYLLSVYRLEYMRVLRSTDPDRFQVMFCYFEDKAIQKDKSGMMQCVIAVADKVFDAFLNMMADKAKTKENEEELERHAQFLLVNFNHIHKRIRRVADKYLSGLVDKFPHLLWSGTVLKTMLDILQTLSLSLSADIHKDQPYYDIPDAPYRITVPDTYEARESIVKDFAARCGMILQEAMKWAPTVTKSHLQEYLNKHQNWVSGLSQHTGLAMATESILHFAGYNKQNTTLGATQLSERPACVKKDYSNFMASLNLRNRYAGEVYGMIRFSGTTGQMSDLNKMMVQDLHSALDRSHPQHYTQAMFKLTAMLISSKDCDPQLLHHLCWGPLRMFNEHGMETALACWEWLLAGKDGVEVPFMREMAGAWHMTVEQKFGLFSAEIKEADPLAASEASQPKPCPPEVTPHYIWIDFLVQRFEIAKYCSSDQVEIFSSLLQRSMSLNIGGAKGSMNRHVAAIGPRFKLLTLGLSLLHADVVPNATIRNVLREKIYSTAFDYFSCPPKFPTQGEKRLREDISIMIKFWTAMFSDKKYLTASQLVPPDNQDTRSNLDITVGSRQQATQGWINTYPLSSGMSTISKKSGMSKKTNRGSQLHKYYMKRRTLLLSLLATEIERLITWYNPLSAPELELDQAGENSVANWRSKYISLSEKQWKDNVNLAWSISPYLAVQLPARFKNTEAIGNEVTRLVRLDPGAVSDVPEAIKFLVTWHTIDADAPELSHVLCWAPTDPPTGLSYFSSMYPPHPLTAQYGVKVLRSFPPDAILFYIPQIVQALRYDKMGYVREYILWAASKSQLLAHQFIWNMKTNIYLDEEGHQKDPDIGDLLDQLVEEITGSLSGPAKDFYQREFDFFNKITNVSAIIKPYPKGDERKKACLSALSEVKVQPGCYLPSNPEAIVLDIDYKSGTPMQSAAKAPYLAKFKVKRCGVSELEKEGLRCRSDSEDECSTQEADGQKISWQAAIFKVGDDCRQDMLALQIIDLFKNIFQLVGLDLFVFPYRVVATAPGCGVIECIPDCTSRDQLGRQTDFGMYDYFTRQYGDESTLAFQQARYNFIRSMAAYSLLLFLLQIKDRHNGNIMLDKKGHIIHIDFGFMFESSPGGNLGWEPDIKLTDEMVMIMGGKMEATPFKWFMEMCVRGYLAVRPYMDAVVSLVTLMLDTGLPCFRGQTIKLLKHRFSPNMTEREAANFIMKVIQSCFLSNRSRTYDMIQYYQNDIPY
# UniProt P53350, whole entry: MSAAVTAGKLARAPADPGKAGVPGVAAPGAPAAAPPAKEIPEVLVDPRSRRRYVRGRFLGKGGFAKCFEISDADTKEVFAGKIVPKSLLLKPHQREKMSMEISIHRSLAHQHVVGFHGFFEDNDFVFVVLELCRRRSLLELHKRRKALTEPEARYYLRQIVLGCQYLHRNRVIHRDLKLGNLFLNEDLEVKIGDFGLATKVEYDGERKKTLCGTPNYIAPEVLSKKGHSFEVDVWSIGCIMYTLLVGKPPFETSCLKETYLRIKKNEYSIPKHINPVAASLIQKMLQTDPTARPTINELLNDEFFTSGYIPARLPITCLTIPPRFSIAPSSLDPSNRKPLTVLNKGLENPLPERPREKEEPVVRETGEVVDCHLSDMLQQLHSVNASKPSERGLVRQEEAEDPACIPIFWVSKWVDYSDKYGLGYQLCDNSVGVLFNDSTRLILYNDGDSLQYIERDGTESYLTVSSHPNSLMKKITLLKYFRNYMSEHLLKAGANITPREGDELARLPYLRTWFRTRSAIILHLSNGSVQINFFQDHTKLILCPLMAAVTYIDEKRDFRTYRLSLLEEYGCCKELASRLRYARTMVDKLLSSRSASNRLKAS
# UniProt Q13546: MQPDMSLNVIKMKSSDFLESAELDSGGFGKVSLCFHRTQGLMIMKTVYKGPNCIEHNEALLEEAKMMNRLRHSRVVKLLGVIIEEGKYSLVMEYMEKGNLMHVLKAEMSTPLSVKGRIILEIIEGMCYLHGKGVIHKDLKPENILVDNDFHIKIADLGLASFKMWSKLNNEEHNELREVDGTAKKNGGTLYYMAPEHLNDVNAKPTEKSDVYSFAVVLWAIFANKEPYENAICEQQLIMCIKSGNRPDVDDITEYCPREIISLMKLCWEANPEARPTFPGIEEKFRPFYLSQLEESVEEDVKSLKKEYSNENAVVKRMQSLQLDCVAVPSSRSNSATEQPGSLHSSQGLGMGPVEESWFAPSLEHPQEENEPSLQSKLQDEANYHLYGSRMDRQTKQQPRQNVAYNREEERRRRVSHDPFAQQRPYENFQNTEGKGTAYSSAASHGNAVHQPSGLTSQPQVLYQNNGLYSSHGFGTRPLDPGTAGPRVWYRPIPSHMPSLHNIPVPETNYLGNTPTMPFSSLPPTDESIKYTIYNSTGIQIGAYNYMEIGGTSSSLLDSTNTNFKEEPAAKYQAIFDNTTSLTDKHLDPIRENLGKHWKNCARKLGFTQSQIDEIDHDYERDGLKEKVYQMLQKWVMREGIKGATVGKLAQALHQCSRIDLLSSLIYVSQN
# The other results are listed elsewhere or left out. The calls rarely recur for the same compound in another form.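 Kinases, fused to nanoluciferase, were expressed in K562 cells; luminescence was measured every 4 h from 2 to 18 h as percent of control (DMSO = 100%, positive control = 0%). A time point is decreased if signal falls significantly (2 sigma). Hits were called by the authors by a rule that is not shown; the count of time points alone does not decide it.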
# Key:
# Assay in all cases: number of time points (of 5) at which kinase-Nluc abundance scored as decreased, DMSO-normalised (count); higher = more persistent destabilization
# Details in all cases: K562; 2-18 h
# NTRK3 = NTRK3 (UniProt Q16288)
# PAK4 = PAK4 (UniProt O96013)
# PBK = PBK (UniProt Q96KB5)
# PDGFRB = PDGFRB (UniProt P09619)
# PDK1 = PDK1 (UniProt Q15118)
# PDPK1 = PDPK1 (UniProt O15530)
# PIK4CA = PIK4CA (UniProt P42356)
# PIK4CB = PIK4CB (UniProt Q9UBF8)
# PLK1 = PLK1 (UniProt P53350)
# PRKAA1 = PRKAA1 (UniProt Q13131)
# PRKCA = PRKCA (UniProt P17252)
# PTK2 = PTK2 (UniProt Q05397)
# PTK2B = PTK2B (UniProt Q14289)
# RAF1 = RAF1 (UniProt P04049)
# [1] = target: RAF1_S257L (clone: RAF1_mut) (UniProt P04049)
# RET = RET (UniProt P07949)
# [2] = target: RET_M918T (clone: RET_mut) (UniProt P07949)
# RIOK1 = RIOK1 (UniProt Q9BRS2)
# RIPK1 = RIPK1 (UniProt Q13546)
# RIPK2 = RIPK2 (UniProt O43353)
SMILES,number of time points (NTRK3),number of time points (PAK4),number of time points (PBK),number of time points (PDGFRB),number of time points (PDK1),number of time points (PDPK1),number of time points (PIK4CA),number of time points (PIK4CB),number of time points (PLK1),number of time points (PRKAA1),number of time points (PRKCA),number of time points (PTK2),number of time points (PTK2B),number of time points (RAF1),number of time points [1],number of time points (RET),number of time points [2],number of time points (RIOK1),number of time points (RIPK1),number of time points (RIPK2)
COc1cc([N+](=O)[O-])ccc1S(=O)(=O)N1C[C@@H](CN2CCN(c3ccccn3)CC2)[C@H](c2cccc(F)c2)C1 (relative stereo) (10 µM),0,0,0,0,0,0,0,0,0,0,0,0,0,0,0,0,0,0,0,0
CN1CCN(c2ccc(Nc3ncc4nc(Nc5ccccc5)n([C@@H]5CCN(S(=O)(=O)C6CC6)C5)c4n3)cc2)CC1 (2.5 µM),0,0,0,0,0,0,0,0,0,0,0,0,0,0,0,0,0,0,0,0
Cc1ccc(S(=O)(=O)/C=C/C#N)cc1 (10 µM),0,0,0,0,0,0,0,0,0,0,0,0,0,0,0,0,0,0,0,0
C[C@]1(O)CCC[C@@H]1n1c(=O)c(C(F)F)cc2cnc(NC3CCN(S(C)(=O)=O)CC3)nc21 (10 µM),0,0,0,0,0,0,0,0,0,0,0,0,0,0,0,0,0,0,0,0
CC(C)c1cnc(-c2cc(Cl)ccc2F)cc1Nc1ccncc1C(=O)NC(CO)CO (2.5 µM),0,0,0,0,0,0,0,0,0,0,0,0,0,0,0,0,0,0,0,0
COc1ncc(-c2nc(N3CCOCC3)nc3c(CN4CCC(C(C)(C)O)CC4)cc(F)cc23)cc1NS(C)(=O)=O [Linperlisib] (10 µM),0,0,0,0,0,0,0,0,0,0,0,0,0,0,0,0,0,0,0,0
O=C(Nc1ccc(F)cc1F)[C@H](NC(=S)Nc1cc(C(F)(F)F)cc(C(F)(F)F)c1)c1ccccc1 (2.5 µM),0,0,0,0,0,0,0,0,0,0,0,0,0,0,0,0,0,0,0,0
CC/C=C\C/C=C\C/C=C\CCCCCCCC(=O)O [α-Linolenic acid] (10 µM),0,0,0,0,0,0,0,0,0,0,0,0,0,0,0,0,0,0,0,0
CCn1c(-c2nonc2N)nc2cnc(Oc3cccc(NC(=O)c4ccc(OCCN5CCOCC5)cc4)c3)cc21 (10 µM),0,0,0,0,0,0,0,0,0,0,0,5,0,0,0,0,0,0,0,0
CC(=O)c1c(C)c2cnc(Nc3ccc(N4CCN(CCCCNC(=O)COc5cccc6c5C(=O)N(C5CCC(=O)NC5=O)C6=O)CC4)cn3)nc2n(C2CCCC2)c1=O (stereo not given) (10 µM),0,0,0,0,0,0,0,0,0,0,0,0,0,0,0,0,0,0,0,0
COc1cccc(-n2c(=O)[nH]c3cc(Cl)n(-c4ccc(-c5cccc(OC)c5O)cc4)c3c2=O)c1 (2.5 µM),0,0,0,0,0,0,0,0,0,0,0,0,0,0,0,0,0,0,0,0

# One compound at a time, from the list above. Values in the order: number of time points (NTRK3)	number of time points (PAK4)	number of time points (PBK)	number of time points (PDGFRB)	number of time points (PDK1)	number of time points (PDPK1)	number of time points (PIK4CA)	number of time points (PIK4CB)	number of time points (PLK1)	number of time points (PRKAA1)	number of time points (PRKCA)	number of time points (PTK2)	number of time points (PTK2B)	number of time points (RAF1)	number of time points [1]	number of time points (RET)	number of time points [2]	number of time points (RIOK1)	number of time points (RIPK1)	number of time points (RIPK2)
# CC(C)c1cnc(-c2cc(Cl)ccc2F)cc1Nc1ccncc1C(=O)NC(CO)CO (2.5 µM) in the list: 0	0	0	0	0	0	0	0	0	0	0	0	0	0	0	0	0	0	0	0
# COc1cccc(-n2c(=O)[nH]c3cc(Cl)n(-c4ccc(-c5cccc(OC)c5O)cc4)c3c2=O)c1 (2.5 µM) in the list: 0	0	0	0	0	0	0	0	0	0	0	0	0	0	0	0	0	0	0	0
